Source: PubChem BioAssay AID334 (DTP/NCI, 2004)
The list is a part of this screen's results and no random one: it is rich in T/C values a quarter to a half above the control, in often repeated tests (any T/C) and in doses without a T/C. Further doses and runs are listed elsewhere. T/C gives the treated animals as a percentage of the vehicle group. Some entries give survivors of the animals treated and no T/C: the source holds a T/C of zero for them, seemingly a mark for toxic or unscored doses. Some doses without a T/C left all or most animals alive at the check, yet need not have been tolerated: survival well below the control is almost never listed, so the zero probably covers shortened survival too. Survivors were counted at the toxicity check, usually on the fifth day, unless a day is given; later deaths do not show. Schedule codes are those of the source, read here as Q, the interval in days (D) or hours (H), X, the number of doses. Some entries were tested several times; their values stand side by side, smallest first. For survival time, this PubChem deposit counts one and a half times the control or more as active, and values a quarter to a half above the control carry no call in these data; other NCI protocols may use other cut-offs. Some T/C values are followed by the survivors on the day toxicity was checked, most often the fifth; where none is given, no animal had died by that day. Marks such as (2×) count equal records among those shown.

System: CD2F1 mice, intracerebral P388 leukemia, median survival T/C%
Test: NCI In Vivo Anticancer Drug Screen. Data for tumor model P388 Leukemia (intracerebral) in CD2F1 (CDF1) mice
Conditions: T/C endpoint: median survival time, higher T/C = longer survival
Experimental: The antitumor activity of compounds was measured in mice bearing transplantable tumors. Survival or tumor size were measured and the results are expressed as the measurement made in the treated group (T) divided by the measurement made in the vehicle treated control group (C). The tumor model used in this assay is P388 Leukemia (intracerebral) in CD2F1 (CDF1) mice

[1] = dose: 100.0 mg/kg/injection, schedule: Q01DX009 (ip), vehicle: saline with Tween-80
[2] = dose: 200.0 mg/kg/injection, schedule: Q01DX009 (ip), vehicle: saline with Tween-80
[3] = dose: 200.0 mg/kg/injection, schedule: Q01DX009 (ip), vehicle: Klucel (hydroxypropylcellulose) (HPC)
[4] = dose: 400.0 mg/kg/injection, schedule: Q01DX009 (ip), vehicle: Klucel (hydroxypropylcellulose) (HPC)
[5] = dose: 25.0 mg/kg/injection, schedule: Q01DX009 (ip), vehicle: saline
[6] = dose: 100.0 mg/kg/injection, schedule: Q01DX009 (ip), vehicle: saline
[7] = dose: 200.0 mg/kg/injection, schedule: Q01DX009 (ip), vehicle: saline

With COc1cc(NC(=O)CN(CCCl)CCCl)cc(OC)c1OC the T/C [1] was 128 % of control and the survivor count [2] was 4 of 6.
For O=P1(NCCCl)OCCCN1CCCl (centres undefined), the T/C (dose: 431.0 mg/kg/injection, schedule: Q01DX001 (ip), vehicle: saline) was 149 % of control.
For NC(C/[N+]([O-])=N/O)C(=O)O (centres undefined), the survivor count (dose: 100.0 mg/kg/injection, schedule: Q01DX009 (ip), vehicle: Klucel (hydroxypropylcellulose) (HPC)) was 4 of 6 and 6 of 6, the survivor count (dose: 112.5 mg/kg/injection, schedule: Q01DX009 (ip), vehicle: saline) was 4 of 6 and the survivor count [3] was 3 of 5 and 5 of 6. The survivor count (dose: 225.0 mg/kg/injection, schedule: Q01DX009 (ip), vehicle: saline) was 4 of 6, the survivor count [4] was 2 of 6 and 4 of 6 and the survivor count (dose: 450.0 mg/kg/injection, schedule: Q01DX009 (ip), vehicle: saline) was 4 of 6. The survivor count (dose: 800.0 mg/kg/injection, schedule: Q01DX009 (ip), vehicle: Klucel (hydroxypropylcellulose) (HPC)) was 0 of 6 and 2 of 6 and the survivor count (dose: 900.0 mg/kg/injection, schedule: Q01DX009 (ip), vehicle: saline) was 2 of 6.
In the case of CC(=O)N[C@@H](Cc1ccc(N(CCCl)CCCl)cc1)C(=O)ON1C(=O)CCC1=O, the T/C (dose: 11.6 mg/kg/injection, schedule: Q03HX008 (ip), vehicle: saline) is reported as 126 % of control [9 of 10 alive], the T/C (dose: 23.2 mg/kg/injection, schedule: Q03HX008 (ip), vehicle: saline) is reported as 131 % of control [7 of 10 alive] and the survivor count (dose: 46.4 mg/kg/injection, schedule: Q03HX008 (ip), vehicle: saline) is reported as 9 of 10.
CNc1nc(N(C)C)nc(N(C)C)n1 was tested, and the T/C [5] was 104 [5 of 6 alive], 105, 114 % of control, the survivor count [5] was 5 of 6 and the T/C (dose: 50.0 mg/kg/injection, schedule: Q01DX009 (ip), vehicle: saline) was 117, 120, 121, 129 % of control. The T/C [6] was 122 and 131 % of control, the survivor count [6] was 5 of 6 and the survivor count (dose: 128.0 mg/kg/injection, schedule: Q01DX009 (ip), vehicle: saline) was 8 of 10. For the same molecule, the survivor count [7] was 2 of 6, 3 of 6, 5 of 6, 6 of 6.
With CC(=O)N(C)c1ccc(Nc2cc(C)[nH]c3ccc4ncnc4c23)cc1 the survivor count (dose: 80.0 mg/kg/injection, schedule: Q01DX005 (ip), vehicle: saline) was 6 of 6 and the survivor count (dose: 160.0 mg/kg/injection, schedule: Q01DX005 (ip), vehicle: saline) was 0 of 6.
With CC1(C)N=C(N)N=C(N)N1c1ccc(OCC(=O)Nc2ccc(S(=O)(=O)F)cc2)c(Cl)c1 the T/C (dose: 400.0 mg/kg/injection, schedule: Q04DX003 (ip), vehicle: saline) was 127 % of control.
For Cc1cc(NC(=O)NCc2ccc(N3C(N)=NC(N)=NC3(C)C)cc2)ccc1S(=O)(=O)F, the survivor count [1] was 3 of 6.
With O=C1NC2(CCCCC2)C(=O)N1CCN(CCCl)CCCl the survivor count (dose: 3.0 mg/kg/injection, schedule: Q01DX009 (ip), vehicle: saline) was 2 of 6, the survivor count (dose: 10.0 mg/kg/injection, schedule: Q01DX005 (iv), vehicle: clinical formulation) was 6 of 8 and the survivor count (dose: 10.0 mg/kg/injection, schedule: Q01DX009 (ip), vehicle: clinical formulation) was 5 of 8. For the same molecule, the T/C (dose: 12.0 mg/kg/injection, schedule: Q01DX009 (ip), vehicle: saline) was 134 % of control [5 of 6 alive], the survivor count (dose: 20.0 mg/kg/injection, schedule: Q01DX005 (iv), vehicle: clinical formulation) was 0 of 8 and the survivor count (dose: 20.0 mg/kg/injection, schedule: Q01DX009 (ip), vehicle: clinical formulation) was 4 of 8. For the same molecule, the survivor count (dose: 24.0 mg/kg/injection, schedule: Q01DX009 (ip), vehicle: saline) was 3 of 6, the survivor count (dose: 40.0 mg/kg/injection, schedule: Q01DX009 (ip), vehicle: clinical formulation) was 0 of 8 and the survivor count (dose: 40.0 mg/kg/injection, schedule: Q01DX009 (ip), vehicle: saline with Tween-80) was 5 of 8.
In the case of CC1(C)N=C(N)N=C(N)N1c1ccc(CCCCc2ccc(S(=O)(=O)F)cc2Cl)c(Cl)c1, the T/C (dose: 25.0 mg/kg/injection, schedule: Q01DX009 (ip), vehicle: saline with Tween-80) is reported as 130 % of control, the T/C (dose: 89.0 mg/kg/injection, schedule: Q04DX003 (ip), vehicle: saline with Tween-80) is reported as 127 % of control and the survivor count (dose: 450.0 mg/kg/injection, schedule: Q04DX003 (ip), vehicle: saline with Tween-80) is reported as 3 of 6.
With CC1(C)N=C(N)N=C(N)N1c1ccc(OCC(=O)N2CCOCC2)c(Cl)c1 the survivor count [7] was 2 of 6.
For NC(CSC(c1ccccc1)(c1ccccc1)c1ccccc1)C(=O)O (centres undefined), the survivor count (dose: 256.0 mg/kg/injection, schedule: Q01DX005 (ip), vehicle: Klucel (hydroxypropylcellulose) (HPC)) was 10 of 10.
With COc1cccc2c1C(=O)c1c(O)c3c(c(O)c1C2=O)CC(O)(C(=O)CO)CC3OC1CC(N)C(O)C(C)O1 (centres undefined) the survivor count (dose: 30.0 mg/kg/injection, schedule: Q04DX003 (ip), vehicle: clinical formulation) was 6 of 10.
With COc1ccc(CC2C(=O)NC(C)C(=O)N(C)C3C(=O)N(C)C(Cc4ccc(O)c(c4)Oc4ccc(cc4)C3O)C(=O)NC(C)C(=O)NC(C)C(=O)N2C)cc1 (centres undefined) the survivor count (dose: 4.0 mg/kg/injection, schedule: Q01DX009 (ip), vehicle: Klucel (hydroxypropylcellulose) (HPC)) was 6 of 10.
CN(CO)c1nc(N(C)CO)nc(N(C)CO)n1 was tested, and the survivor count (dose: 50.0 mg/kg/injection, schedule: Q01DX009 (ip), vehicle: saline with Tween-80) was 4 of 6, the survivor count [1] was 4 of 6 and 9 of 10 and the survivor count [3] was 4 of 6 and 5 of 6. For the same molecule, the survivor count [2] was 3 of 6 and 6 of 10, the survivor count [4] was 0 of 6 and the survivor count (dose: 400.0 mg/kg/injection, schedule: Q01DX009 (ip), vehicle: saline with Tween-80) was 0 of 6. For the same molecule, the survivor count (dose: 800.0 mg/kg/injection, schedule: Q01DX009 (ip), vehicle: saline with Tween-80) was 2 of 6.
With CC(=O)NNC(=O)c1ccccn1 the survivor count (dose: 400.0 mg/kg/injection, schedule: Q01DX005 (ip), vehicle: Klucel (hydroxypropylcellulose) (HPC)) was 0 of 10 and the survivor count (dose: 800.0 mg/kg/injection, schedule: Q01DX005 (ip), vehicle: Klucel (hydroxypropylcellulose) (HPC)) was 0 of 10.
With [N-]=[N+]=CC(=O)CCC(N)C(=O)O (centres undefined) the T/C (dose: 0.1 mg/kg/injection, schedule: Q01DX009 (ip), vehicle: saline) was 126 % of control and the survivor count (dose: 0.8 mg/kg/injection, schedule: Q01DX009 (ip), vehicle: saline) was 10 of 10.
For CCN(CC)c1ccc2cc3ccc(=[N+](CC)CC)cc-3oc2c1, the survivor count (dose: 16.0 mg/kg/injection, schedule: Q01DX005 (ip), vehicle: suspension in saline) was 7 of 10 and the survivor count (dose: 32.0 mg/kg/injection, schedule: Q01DX005 (ip), vehicle: suspension in saline) was 0 of 10.
In the case of O=NN(CCCl)C(=O)NCCCl, the T/C (dose: 2.5 mg/kg/injection, schedule: Q01DX009 (ip), vehicle: saline + alcohol) is reported as 105 [9 of 10 alive], 138, 140, 143, 165, 166, 172, 173, 210 % of control, the T/C (dose: 4.0 mg/kg/injection, schedule: Q01DX005 (iv), vehicle: saline + alcohol) is reported as 135 % of control and the T/C (dose: 5.0 mg/kg/injection, schedule: Q01DX009 (ip), vehicle: saline + alcohol, evaluated on day 30) is reported as 164 [9 of 10 alive], 166, 171, 178, 186, 190, 202, 203, 207 % of control. For the same molecule, the T/C (dose: 5.0 mg/kg/injection, schedule: Q01DX009 (ip), vehicle: saline + alcohol, evaluated on day 60) was 190 % of control, the T/C (dose: 10.0 mg/kg/injection, schedule: Q01DX009 (ip), vehicle: saline + alcohol, evaluated on day 30) was 119, 122, 128, 135, 136, 137, 146, 200, 214 % of control and the T/C (dose: 10.0 mg/kg/injection, schedule: Q01DX009 (ip), vehicle: saline + alcohol, evaluated on day 60) was 148 % of control. The T/C (dose: 15.0 mg/kg/injection, schedule: Q01DX009 (ip), vehicle: saline + alcohol, evaluated on day 30) was 99, 100 (2×), 107, 109, 110 (2×), 116, 121 % of control [8 of 10 alive], the T/C (dose: 15.0 mg/kg/injection, schedule: Q01DX009 (ip), vehicle: saline + alcohol, evaluated on day 60) was 115 % of control and the T/C (dose: 16.0 mg/kg/injection, schedule: Q01DX005 (iv), vehicle: saline + alcohol) was 141 % of control. The survivor count (dose: 50.0 mg/kg/injection, schedule: Q01DX001 (ip), vehicle: saline + alcohol) was 10 of 10.
